These are yes or no findings as the source states them, for the method shown. In cells and extracts the contact can be indirect. A yes stands for co-enrichment or nearness to the bait. Other partners may have been found. A no says only that the protein was not detected with the bait.

The chains behind the UniProt entries cited, without tags or fusion partners. Where a name states a change or a piece, a line headed by the entry shows the natural chain unless it says otherwise.
UniProt S8F4K6: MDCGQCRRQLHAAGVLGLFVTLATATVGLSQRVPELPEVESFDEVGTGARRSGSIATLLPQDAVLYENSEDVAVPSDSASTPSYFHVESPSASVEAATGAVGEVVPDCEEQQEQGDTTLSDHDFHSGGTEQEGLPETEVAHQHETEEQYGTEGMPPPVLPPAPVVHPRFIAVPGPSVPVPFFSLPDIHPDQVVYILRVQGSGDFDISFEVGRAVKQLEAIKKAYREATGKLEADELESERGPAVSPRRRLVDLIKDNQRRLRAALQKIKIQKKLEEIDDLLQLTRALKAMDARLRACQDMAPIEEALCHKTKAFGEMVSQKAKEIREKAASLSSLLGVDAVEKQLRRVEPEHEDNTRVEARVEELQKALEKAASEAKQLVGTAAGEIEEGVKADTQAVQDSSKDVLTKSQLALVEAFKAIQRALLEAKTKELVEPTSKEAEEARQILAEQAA

This assay concerns the target T1, BPK1-BirA* (Toxoplasma gondii).
T1 sequence: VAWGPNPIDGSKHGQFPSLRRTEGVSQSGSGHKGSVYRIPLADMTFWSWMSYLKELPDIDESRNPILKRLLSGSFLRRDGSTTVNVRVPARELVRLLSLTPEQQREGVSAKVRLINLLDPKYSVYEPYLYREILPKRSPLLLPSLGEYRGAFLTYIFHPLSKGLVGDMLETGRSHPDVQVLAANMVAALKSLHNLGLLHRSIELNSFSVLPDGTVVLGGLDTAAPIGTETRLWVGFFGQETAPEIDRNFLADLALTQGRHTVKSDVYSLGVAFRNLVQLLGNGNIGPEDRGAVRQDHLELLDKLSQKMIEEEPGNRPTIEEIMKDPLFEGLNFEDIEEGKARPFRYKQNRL
Put plainly: proximity labelling; BioID, group 1 baits (BirA*-3xHA at the C terminus) in Pru bradyzoites in HFF cells, 3 days pH 8.2 medium with 150 uM biotin; RIPA lysate, streptavidin agarose overnight at 4°C, RIPA and 8 M urea washes, LC-MS/MS; proteins of the untagged Pru sample filtered out; duplicates pooled.

On to MAG1 (from UniProt S8F4K6), for which the binding entry is listed as “no binding”.

B1: GRA7 (protein, UniProt O00933 27-236)
chain: ATASDDELMSRIRNSDFFDGQAPVDSLRPTNAGVDSKGTDDHLTTSMDKASVESQLPRREPLETEPDEQEEVHFRKRGVRSDAEVTDDNIYEEHTDRKVVPRKSEGKRSFKDLLKKLALPAVGMGASYFAADRLVPELTEEQQRGDEPLTTGQNVGTVLGFAALAAAAAFLGMGLTRTYRHFSPRKNRSRQPALEQEVPESGEDGEDARQ
With B1, the binding result was “no binding”.

The values are drawn from paper PMC7002340.
